Measured values: patent US6770638B2, “Tetrahydroindolone and purine derivatives linked to arylpiperazines” (Spectrum Pharmaceuticals, Inc., priority 2001, dated 2004)

Assay: Membrane permeability (Papp) across Caco-2 cell monolayers
Assay type: in vitro ADME
Settings: human; Caco-2 monolayer, apical to basolateral; read-out: Papp (cm/s × 10^6) AP-to-BL

- Papp A→B: 1.3 ± 0.2 ×10⁻⁶ cm/s
Compound: CC(C)NCC(O)COc1ccc(CC(N)=O)cc1 (stereo not shown) [Atenolol, reference compound]
